Data set [1] has as its system human endometrial epithelial cells (HEECs). Briefly: LC-MS/MS analysis of plasma membrane-enriched proteins of HEECs. The note with it: for Total unique peptides, Samples 1: sample 1, proliferative phase; for Total unique peptides, Samples 2: sample 2, proliferative phase; for Total unique peptides, Samples 3: sample 3, proliferative phase.
The next data set relates to Ishikawa cells. Kind of data set: RNAseq of control and PCX-OE Ishikawa cells. The class given is cell-based, human. The note with it: RNAseq mRNA of the named gene; PCX-OE vs control Ishikawa cells; p<0.01, Log(2)FC>2 or <−2.

Consider Alpha-enolase, for which, in data set [1], the “Total unique peptides, Samples 1” value came out at 7; the “Total unique peptides, Samples 2” value is 8; the “Total unique peptides, Samples 3” value is on record as 6.

As for BMP4, the “Levels in PCX-OE compared to control cells” value in the data set on Ishikawa cells is “Down-regulated”.

DKK1: the “Levels in PCX-OE compared to control cells” value with Ishikawa cells is recorded as “Down-regulated”.

On to Ezrin, for which, in data set [1], the “Total unique peptides, Samples 1” value turned out to be 7; the “Total unique peptides, Samples 2” value is 4; the “Total unique peptides, Samples 3” value stood at 3.

For the substance FGF2, the “Levels in PCX-OE compared to control cells” value in the data set with Ishikawa cells was “Down-regulated”.

Heat shock protein HSP 90-alpha: in data set [1], the “Total unique peptides, Samples 1” value was found to be 18; the “Total unique peptides, Samples 2” value came out at 23; the “Total unique peptides, Samples 3” value came out at 10.

As for “IQGAP1 IQ motif containing GTPase activating protein 1”, in data set [1], the “Total unique peptides, Samples 1” value is on record as 19; the “Total unique peptides, Samples 2” value was found to be 21; the “Total unique peptides, Samples 3” value is reported as 15.

For the substance Integrin alpha V protein, in data set [1], the “Total unique peptides, Samples 1” value is 7; the “Total unique peptides, Samples 2” value is given as 2; the “Total unique peptides, Samples 3” value came out at 8.

Turning to Integrin alpha-1, in data set [1], the “Total unique peptides, Samples 1” value worked out at 5; the “Total unique peptides, Samples 2” value amounted to 6; the “Total unique peptides, Samples 3” value was 6.

As for Integrin alpha-6, in data set [1], the “Total unique peptides, Samples 1” value was 9; the “Total unique peptides, Samples 2” value was 8; the “Total unique peptides, Samples 3” value came to 9.

For the substance Integrin beta-1, in data set [1], the “Total unique peptides, Samples 1” value was found to be 9; the “Total unique peptides, Samples 2” value was found to be 11; the “Total unique peptides, Samples 3” value came to 12.

On to Integrin beta-3, for which, in data set [1], the “Total unique peptides, Samples 1” value worked out at 5; the “Total unique peptides, Samples 2” value is recorded as 2; the “Total unique peptides, Samples 3” value was 7.

For the substance Mucin-1, in data set [1], the “Total unique peptides, Samples 1” value worked out at 1 and the “Total unique peptides, Samples 2” value is given as 1.

For the substance Myoferlin, in data set [1], the “Total unique peptides, Samples 1” value was 9; the “Total unique peptides, Samples 2” value is reported as 8; the “Total unique peptides, Samples 3” value came out at 4.

On to Neuroplastin, for which, in data set [1], the “Total unique peptides, Samples 1” value turned out to be 3; the “Total unique peptides, Samples 2” value stood at 1; the “Total unique peptides, Samples 3” value was 1.

Take “Prostaglandin F2 receptor negative regulator”: in data set [1], the “Total unique peptides, Samples 1” value came to 5; the “Total unique peptides, Samples 2” value is recorded as 6; the “Total unique peptides, Samples 3” value stood at 3.

Regarding “Sodium/potassium-transporting ATPase subunit beta-3”, in data set [1], the “Total unique peptides, Samples 1” value came out at 3; the “Total unique peptides, Samples 2” value came to 1; the “Total unique peptides, Samples 3” value was determined as 2.

Regarding Talin-1, in data set [1], the “Total unique peptides, Samples 1” value was 34; the “Total unique peptides, Samples 2” value was 36; the “Total unique peptides, Samples 3” value was found to be 4.

As for “Trans-golgi network protein 2, isoform CRA”, in data set [1], the “Total unique peptides, Samples 1” value was 1; the “Total unique peptides, Samples 2” value turned out to be 1; the “Total unique peptides, Samples 3” value is listed as 1.

For the origin of these results see patent publication US20220268780A1, “METHODS OF PREDICTING ENDOMETRIAL RECEPTIVITY” (HUDSON INSTITUTE OF MEDICAL RESEARCH, priority 2019, published 2022).
